Literature values, collected in patent US9592213B2, “Prophylactic and/or therapeutic agent for dysmenorrhea” (National University Corporation Kumamoto University, priority 2009, dated 2017).
At least one read-out could not be matched to a standard name with certainty.

Settings: single-dose administration at 100 mg, normal adult; cited from earlier work

COc1ccc(C=CC(=O)Nc2ccccc2C(=O)O)cc1OC [Tranilast, N-(3,4-dimethoxycinnamoyl) anthranilic acid]
time of Cmax: 2 h
